Measurements reported in PubChem BioAssay AID1259425 (University of Nebraska Medical Center, 2018).

- Test: 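Find knockdowns that reproduce the gene expression pattern seen when KSR1 is lost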 (primary screen)
- System: HCT116 human colon cancer cells
- Knock-down reagent: siRNA pool against human genes, 50 nM siRNA
- Measurement: 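After 50 nM siRNA pool, branched-DNA assay measures six marker transcripts per well, minus blank, normalised to the geometric mean of two housekeeping transcripts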
- Reading the numbers: BNIP3L mRNA: higher = more BNIP3L transcript after knockdown; NDRG1 mRNA: higher = more NDRG1 transcript after knockdown; BNIP3 mRNA: higher = more BNIP3 transcript after knockdown; ALDOC mRNA: higher = more ALDOC transcript after knockdown; ACSL5 mRNA: higher = more ACSL5 transcript after knockdown
In all, the deposit lists about 14,000 reagents; below is a random part of them. No sequences are given here. Not stated in the record: the time to read-out.

no.	Gene	BNIP3L mRNA, set 1	NDRG1 mRNA, set 1	BNIP3 mRNA, set 1	ALDOC mRNA, set 1	ACSL5 mRNA, set 1
1	PSG5 (pregnancy specific beta-1-glycoprotein 5)	0.0482	0.201	0.25	0.0252	0.0922
2	CYP2C8 (cytochrome P450 family 2 subfamily C member 8)	0.0707	0.154	0.278	0.0129	0.257
3	ADH4 (alcohol dehydrogenase 4 (class II), pi polypeptide)	0.118	0.342	0.23	0.0207	0.104
4	SPINK4 (serine peptidase inhibitor Kazal type 4)	0.16	0.105	0.355	0.0392	0.377
5	EPB42 (erythrocyte membrane protein band 4.2)	0.0513	0.111	0.265	0.0354	0.152
6	CD300C (CD300c molecule)	0.0717	0.152	0.237	0.0182	0.122
7	SLC24A3	0.165	0.342	0.442	0.046	0.287
8	CD53 (CD53 molecule)	0.0847	0.195	0.295	0.00906	0.187
9	FOXM1 (forkhead box M1)	0.0882	0.0865	0.305	0.00714	0.227
10	TYW1 (tRNA-yW synthesizing protein 1 homolog)	0.157	0.425	0.34	0.0192	0.163
11	CISD1 (CDGSH iron sulfur domain 1)	0.0962	0.066	0.345	0.0365	0.111
12	C12orf43 (chromosome 12 open reading frame 43)	0.1	0.266	0.395	0.0184	0.219
13	HADHA	0.0687	0.185	0.237	0.00898	0.161
14	ZNF333 (zinc finger protein 333)	0.102	0.169	0.233	0.0257	0.133
15	ZSCAN2 (zinc finger and SCAN domain containing 2)	0.0198	0.148	0.29	0.0262	0.0934
16	PSMB9 (proteasome 20S subunit beta 9)	0.0652	0.369	0.276	0.0283	0.104
17	PADI3 (peptidyl arginine deiminase 3)	0.0991	0.236	0.354	0.0302	0.358
18	DMTF1 (cyclin D binding myb like transcription factor 1)	0.194	0.247	0.714	0.0407	0.134
19	OLIG3 (oligodendrocyte transcription factor 3)	0.12	0.176	0.181	0.0409	0.0956
20	DZIP3 (DAZ interacting zinc finger protein 3)	0.13	0.12	0.43	0.0455	0.127
21	IQCH (IQ motif containing H)	0.0761	0.208	0.302	0.00578	0.359
22	RPS10 (ribosomal protein S10)	0.0373	0.224	0.264	0.00719	0.0713
23	ZNF200 (zinc finger protein 200)	0.0863	0.0445	0.271	0.018	0.142
24	UBE2I (ubiquitin conjugating enzyme E2 I)	0.182	0.477	0.349	0.0303	0.297
25	ITGAL (integrin subunit alpha L)	0.0378	0.198	0.278	0.0435	0.149
26	TRHR (thyrotropin releasing hormone receptor)	0.0542	0.262	0.248	0.0492	0.209
27	PAFAH2 (platelet activating factor acetylhydrolase 2)	0.0811	0.334	0.32	0.0322	0.125
28	RBM19 (RNA binding motif protein 19)	0.0405	0.0399	0.19	0.0159	0.131
29	ATP1B4 (ATPase Na+/K+ transporting family member beta 4)	0.121	0.303	0.364	0.034	0.192
30	SATB2 (SATB homeobox 2)	0.0771	0.0927	0.272	0.0155	0.0793
31	H1-5 (H1.5 linker histone, cluster member)	0.183	0.364	0.35	0.0302	0.107
32	NOMO1 (NODAL modulator 1)	0.114	0.419	0.376	0.0271	0.162
33	GPS2 (G protein pathway suppressor 2)	0.0914	0.0639	0.261	0.0147	0.119
34	TCHP (trichoplein keratin filament binding)	0.0989	0.206	0.198	0.0523	0.287
35	PDHX (pyruvate dehydrogenase complex component X)	0.173	0.271	0.201	0.0436	0.181
36	DENND1A (DENN domain containing 1A)	0.0558	0.103	0.412	0.0336	0.0987
37	XPNPEP3 (X-prolyl aminopeptidase 3)	0.0878	0.253	0.214	0.0364	0.109
38	BMP3 (bone morphogenetic protein 3)	0.0413	0.28	0.158	0.0171	0.205
39	GOLGA6B (golgin A6 family member B)	0.13	0.223	0.697	0.0287	0.15
40	ADAP1 (ArfGAP with dual PH domains 1)	0.12	0.187	0.225	0.012	0.0631
41	RPTOR (regulatory associated protein of MTOR complex 1)	0.0484	0.143	0.266	0.0193	0.139
42	GPD1 (glycerol-3-phosphate dehydrogenase 1)	0.0277	0.0702	0.268	0.0614	0.123
43	LANCL2 (LanC like glutathione S-transferase 2)	0.116	0.135	0.326	0.0307	0.217
44	STK4 (serine/threonine kinase 4)	0.138	0.222	0.479	0.00457	0.176
45	COG6 (component of oligomeric golgi complex 6)	0.131	0.206	0.29	0.037	0.236
46	PGBD5 (piggyBac transposable element derived 5)	0.165	0.198	0.264	0.0437	0.17
47	HDGFL2 (HDGF like 2)	0.144	0.278	0.353	0.0593	0.175
48	POLA1 (DNA polymerase alpha 1, catalytic subunit)	0.105	0.303	0.229	0.0366	0.0735
49	CDH20 (cadherin 20)	0.0658	0.0418	0.251	0.00675	0.106
50	VPS4B (vacuolar protein sorting 4 homolog B)	0.119	0.188	0.327	0.0371	0.205

As entered above:
Under “BNIP3L mRNA, set 1”, POLA1 (DNA polymerase alpha 1, catalytic subunit) shows 0.105
GPS2 (G protein pathway suppressor 2), ACSL5 mRNA, set 1 → 0.119
Under “BNIP3 mRNA, set 1”, PAFAH2 (platelet activating factor acetylhydrolase 2) has 0.32
Value for SLC24A3 under “NDRG1 mRNA, set 1”: 0.342
For “BNIP3 mRNA, set 1”, NOMO1 (NODAL modulator 1) is entered as 0.376
For “ALDOC mRNA, set 1”, ZSCAN2 (zinc finger and SCAN domain containing 2) is entered as 0.0262
